## Percent effect of library compounds

Mtb glucose medium: 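Growth of Mycobacterium tuberculosis over 3 days (7H9 medium with glucose and tyloxapol); the read-out is not stated. Concentration: 500 µM. Direction is inferred from retests: higher values go with more growth inhibition. About 18,000 compounds were tested under these conditions; 7.9% (about 1,400) showed 50% or more at least once.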
Mtb cholesterol medium: 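Phenotypic screen: M. tuberculosis growth, cholesterol and DPPC medium, 4 days; the read-out is not stated. Compounds at 500 µM. The record gives no direction; compounds that gave an IC50 in retests scored well above the rest, so higher reads as more growth inhibition. Of about 18,000 compounds tested this way, about 900 (5%) reached 50% or more in at least one test.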

Results are given as percent effect.
How 0% and 100% were set is not recorded. Most values in the screen are low, and negative values occur.
Compounds were drawn at random from those tested, without regard to their results.

| compound | Mtb glucose medium | Mtb cholesterol medium |
|---|---|---|
| `OC1(C(F)(F)F)CNC1` | 5.764 | 2.708 |
| `CN(CCS(N)(=O)=O)Cc1cccc(OC(F)(F)F)c1` | 44.71 | 38.87 |
| `Cc1cc(C)c(CNC(=O)N(C)C)c(=O)[nH]1` | 5.675 | 7.881 |
| `CCCNC(=O)c1cnn(C)c1-n1cccc1` | 4.198 | -22.41 |
| `Cc1noc(C)c1S(=O)(=O)NCC1(N)CCCCC1` | -8.442 | 1.401 |
| `Cc1nnc(CNC(=O)CCCN2CCCC2=O)s1` | 1.766 | -2.634 |
| `CN(C)C(=O)C1CCN(C(=O)c2cccc(F)c2)CC1` | 18.64 | 14.87 |
| `COCCOc1cc(C)ccc1CN` | 46.32 | 27.02 |
| `CC(C)(C)c1ccc2c(c1)C(N)C(=O)N2` (centres unmarked) | 104 | 72.52 |
| `CC(=O)Nc1ccc(C(=O)N(C)Cc2cccs2)cc1` | 82.8 | 96.25 |
| `N#Cc1ccc(CC(N)=O)cc1` | -5.007 | -16.57 |
| `CCc1cc(N2CCCC(CN)C2)n2nccc2n1` (centres unmarked) | 29.01 | 10.79 |
| `COc1cc(F)ccc1C(C)N` (centres unmarked) | 7.625 | 0.745 |
| `CC(C(=O)N1CCCCC1)N1CCCCC1=O` (centres unmarked) | -8.009 | -4.852 |
| `COCC(=O)NCc1cnn(Cc2ccccc2)c1` | 42.74 | 15.76 |
| `CC(Sc1nnc(-c2ccccc2F)n1C)C(N)=O` (centres unmarked) | 13.49 | -1.039 |
| `NC1CC(=O)N(CCc2ccccc2)C1` (centres unmarked) | -5.112 | -8.846 |
| `Cc1noc(C)c1CC(=O)N1CCN(S(C)(=O)=O)CC1` | -0.1094 | 6.79 |
| `Cc1c[nH]nc1CN1Cc2ccccc2CC1C(N)=O` (centres unmarked) | 40.53 | 7.852 |
| `COc1cccc(OC)c1OCCN1CCN(C)CC1` | -12.52 | -11.2 |
| `CC(C)(C)OC(=O)N1CCN(C(N)=O)CC1` | 0.8513 | 8.169 |
| `NCCC(=O)Nc1ccccc1` | 2.015 | -8.085 |
| `CN(C)c1nc(N)nc(CSCc2ccccn2)n1` | 35.24 | 14.36 |
| `O=C(Cc1cccc(O)c1)N1CCCC1` | 17.91 | 3.064 |
| `CN(C)C(=O)CC1CCNCC1` | 4.997 | 5.936 |
| `CC(=O)NCc1cccc(OCc2ccccn2)c1` | 37.57 | 2.031 |
| `CN(C)[C@H]1CN(C(=O)CN2CCCC2=O)C[C@@H]1C1CC1` | 8.027 | 4.201 |
| `CO[C@H]1CNCC1NC(=O)c1cc(C(C)C)nn1C` (some centres unmarked) | 11.55 | 1.809 |
| `Cc1ccc(OC2CCN(C(=O)[C@@H](C)N)CC2)cc1` | 43.39 | 41.69 |
| `CCn1cc(S(=O)(=O)N2CCSCC2)cn1` | 33.03 | 15.88 |
| `CCC1CN(S(=O)(=O)N2CCCCC2)CCO1` (centres unmarked) | 40.83 | 36.37 |
| `CN(C1CCCCC1)S(=O)(=O)NC1CCCCNC1=O` (centres unmarked) | 54.93 | 42.25 |
| `CNC(=O)CNC(=O)c1ccc(C#N)c(C)n1` | -11.03 | -13.17 |
| `CN1CCN(C2CCN(C(=O)Cc3ccsc3)C2)CC1` (centres unmarked) | 4.565 | 4.434 |
| `CN(C)C(CNC(=O)NCc1cc[nH]n1)c1ccsc1` (centres unmarked) | 8.012 | 2.545 |
| `NS(=O)(=O)CCc1ccc(F)cc1` | 1.577 | -13.97 |
| `Cc1cc(C(=O)N2CCC(C(N)=O)C2)cc(Cl)c1Br` (centres unmarked) | 68.84 | 45.85 |
| `CCNC(=O)NC(=O)CN(C)Cc1ccc(Br)o1` | 21.28 | 22.65 |
| `CC(C)(CN)N1CCc2ccccc2C1` | 36.4 | 20.89 |
| `CNC(=O)CNC(=O)c1cc2ccccc2cc1OC` | 58.52 | 36.71 |
| `COCCCNC(=O)C1=Cc2ccccc2OC1` | 71.42 | 81 |
| `O=C(CCN1CCC[C@H]1CO)Nc1ccccc1Cl` | -9.023 | -10.92 |
| `CCc1nnc(NC(=O)c2ccnn2C)s1` | -8.44 | 3.85 |
| `CC(=O)c1c(C)cc(C)nc1C` | 18.72 | 7.928 |
| `Cc1n[nH]c(C)c1C(N)C(=O)NCCc1ccnn1C` (centres unmarked) | 2.552 | -5.348 |
| `Cc1cc(S(=O)(=O)N2CCCC2CN)sc1C` (centres unmarked) | 53.38 | 22.88 |
| `CCc1ccccc1-n1c(CNC)n[nH]c1=O` | 13.52 | 18.52 |
| `CNCc1ccc(Cn2ccnc2)cc1` | 1.973 | -5.35 |
| `CSc1ccc(Cl)c(C(=O)N2CCN(C)CC2)c1` | 30.84 | 16.86 |
| `CCCS(=O)(=O)NCCc1noc(C)n1` | -0.163 | -29.8 |
| `Cc1cccc(OCCCC(=O)N(C)CC(N)=O)c1` | 37.86 | 19.97 |
| `COCCC(=O)NC(C)Cc1ccc(O)cc1` (centres unmarked) | 14.5 | 7.224 |
| `CNC(=O)c1ccc(CN)cn1` | -5.152 | -19.02 |
| `CC(NC(=O)C1CCCC1)c1ccc(S(C)(=O)=O)cc1` (centres unmarked) | -8.444 | -14.18 |
| `CCC(C)(C)NC(=O)C1CCCN(C(=O)C(C)C)C1` (centres unmarked) | 9.647 | -11.27 |
| `Cc1c(Cl)c(C(F)F)nn1CC(=O)NCC1CCCO1` (centres unmarked) | 22.45 | 3.273 |
| `CCn1cc(Br)c(=O)c(NC(=O)CC(F)(F)F)c1` | 3.356 | 1.564 |
| `CNC(=O)CN1CCC(OCCCc2ccccc2)C1` (centres unmarked) | 60.02 | 44.61 |
| `COC(=O)CNC(=O)C1(c2ccccc2)CCC1` | 22.03 | 10.64 |
| `CNCCN1CCN(C(=O)OC(C)(C)C)CC1` | -2.205 | -8.112 |
| `CN(CCn1cnnc1)c1ccc2ccc(F)cc2n1` | 69.39 | 72.21 |
| `COC(=O)c1cnc2[nH]nc(C)c2c1` | -10.75 | -23.66 |

Some entries from above, unchanged:

{"compound": "Cc1c[nH]nc1CN1Cc2ccccc2CC1C(N)=O", "stereo": "centres unmarked", "Mtb glucose medium": 40.53, "Mtb cholesterol medium": 7.852}
{"compound": "Cc1c(Cl)c(C(F)F)nn1CC(=O)NCC1CCCO1", "stereo": "centres unmarked", "Mtb glucose medium": 22.45, "Mtb cholesterol medium": 3.273}
{"compound": "Cc1cc(C(=O)N2CCC(C(N)=O)C2)cc(Cl)c1Br", "stereo": "centres unmarked", "Mtb glucose medium": 68.84, "Mtb cholesterol medium": 45.85}
{"compound": "CO[C@H]1CNCC1NC(=O)c1cc(C(C)C)nn1C", "stereo": "some centres unmarked", "Mtb glucose medium": 11.55, "Mtb cholesterol medium": 1.809}

Measurements from “University of Dundee, Small-Polar-MMV Screening Library” (2021), ChEMBL document CHEMBL3988442.